# Measurements from the supplement of paper PMC5949888.
# Most values lie at the floor of the assay. Slopes are relative: functional sequences can read slightly below zero.
# Tested on: Saccharomyces cerevisiae PS128 hsf1 delta, HSF1(1-493) fusion
# Assay: growth estimate (transactivation domain function in HSF1 fusion, heat-shock survival) (a.u. (slope of normalised read count over time)); higher = stronger growth at 37°C, i.e. more transactivation activity
# Conditions: library: random library
row,Substance,growth estimate
1,SFFCFMS,< -0.25
2,FPIHTVLTVYRTLTGGGSIN,< -0.25
3,IPKITAIWEFCASYTRTKYP,< -0.25
4,HDDHDRTPTIHRVIASPGGP,< -0.25
5,LQGQSGRMPMIPDPAGRQTP,< -0.25
6,HVDDLTQAGNIQPMKVLR,< -0.25
7,FCPILQNTLRLPPPDTKEGI,< -0.25
8,IHCKVVFTLALYVRD,< -0.25
9,PNLICFSCWLGNLRNAGQRS,< -0.25
10,PATYGRTQKRLV,< -0.25
11,WSER,< -0.25
12,RFPLSHKLCAY,< -0.25
13,FFNLIKHDAAGYIGIYENH,< -0.25
14,WVTT,< -0.25
15,QLL,< -0.25
16,LVGISRVRGSTVCTRGGGIF,< -0.25
17,GRVVRGRF,< -0.25
18,CSEVLELVYR,< -0.25
19,DSYIKIGTKTRYKNVGKSL,< -0.25
20,QGALGACAWLVVDTASYLAN,< -0.25
21,QPLSVV,< -0.25
22,SEISTGVTCSLL,< -0.25
23,GVYRYRSRGFYTSADDPCPK,< -0.25

row,Substance,growth estimate
1,TLSVACRTWKGT,< -0.25
2,KATVL,< -0.25
3,VVYGSRNFGMYGEGGRQGRN,< -0.25
4,IGNRFS,< -0.25
5,ILCATARRTDDTSDGGYSIE,< -0.25
6,KDAPILRRSTLIQK,< -0.25
7,RHQAGLIWQRCNWFSGLFPG,< -0.25
8,HSPCYARFISNRTRL,< -0.25
9,YTFIRTTYCTFGFV,< -0.25
10,YVRTVHFGRFQATFIILLH,< -0.25
11,RYRQARFLSGNW,< -0.25
12,RRPSGGTIRHSDAGHMGSYV,< -0.25
13,RCRYTNEYSS,< -0.25
14,NRPG,< -0.25
15,SATTYLW,< -0.25
16,AIKAMSGAWWSLPYCSLPKR,< -0.25
17,TKFGLVAASFYTIRAFGLMA,< -0.25
18,WQLVLTLDGKRSRRSFQGPK,< -0.25
19,FWGSSNGDHDDGCMHRPIEM,< -0.25
20,SRCTGRRVP,< -0.25
21,SRDPDSNRVATANGRPRVRS,< -0.25
22,FVVEGVRDRRTFRNFSAWVG,< -0.25
23,LGNHRGTGVIGRQGCRHAHV,< -0.25

# Some of the entries so far, bar-delimited.
row | Substance | growth estimate
1 | TLSVACRTWKGT | < -0.25
2 | KATVL | < -0.25
12 | RRPSGGTIRHSDAGHMGSYV | < -0.25
20 | SRCTGRRVP | < -0.25

# (next part)

row,Substance,growth estimate
1,FPQK,< -0.25
2,GAPAQPGVLASIGVSQNFLI,< -0.25
3,RGWSGTHGHSGGLQATHSHI,< -0.25
4,SFLSGGRLA,< -0.25
5,GNGNHGGG,< -0.25
6,HSMGCRRGRTAPKVGIDSTF,< -0.25
7,FKPP,-0.248
8,SGIPRPGSVLTQRGDQNLSV,< -0.25
9,IININGVSGTRGRGLHSLRW,< -0.25
10,INVKRSCRISEYDTTFLVIT,< -0.25
11,DAFVT,< -0.25
12,AASMPQTWSQGLDNNIALVL,< -0.25
13,EDT,-0.243
14,FWSMGYANAKEATTRFRKEI,< -0.25
15,NWGTVVTKEGLAHSQYHMCR,< -0.25
16,YLVNGGLSWSAVIDMKTSRS,-0.222
17,LTSSTWEDILCRKCQHCASL,< -0.25
18,HTWFSGLLLWHAMFRSLRPT,< -0.25
19,HAWRSRD,< -0.25
20,PYGRRSFLICRRTA,< -0.25
21,SNAF,< -0.25
22,SIGRKCNPMLL,< -0.25
23,VVHG,< -0.25

# At a glance, some entries already given.
row,Substance,growth estimate
20,PYGRRSFLICRRTA,< -0.25
21,SNAF,< -0.25
22,SIGRKCNPMLL,< -0.25
23,VVHG,< -0.25

# Following part

row,Substance,growth estimate
1,MLCPRLRIEIGSISRSLTAR,< -0.25
2,GAEMVNVQK,-0.246
3,GGDRIYGNRGSPPIHNRLMH,< -0.25
4,FPPRDGLRKRLYQALSGFGR,< -0.25
5,REHMAGDAVEIFGHTTGSIP,< -0.25
6,TRTRSNETTAVKVCIYTTPD,< -0.25
7,LLVSRLHTAPATRTLRVGSV,< -0.25
8,GESGGGCQGGIYVNI,< -0.25
9,WYRPRG,< -0.25
10,LEGMRRGFLAIHGRSNPTYS,< -0.25
11,VRNSLPVLLGAGFCNRQA,< -0.25
12,VGAP,< -0.25
13,RNTRVLLAAWVPTTTPSQRG,< -0.25
14,PCVETAGPLVGYP,< -0.25
15,VSVSGCHEIGG,< -0.25
16,VIDLW,< -0.25
17,WPLMRA,< -0.25
18,GRWNCQEERVLDSKPVVKWF,< -0.25
19,GPRGR,< -0.25
20,VRGATE,< -0.25
21,ARSVE,< -0.25
22,PGDTSPSCCG,< -0.25
23,GRRIK,< -0.25

row,Substance,growth estimate
1,SYATYPTVPWLL,-0.119
2,CVQGCPPLPGSWAAI,< -0.25
3,LGNSLFGYYQVRGPMVQVIV,< -0.25
4,QFPIPRTLGTE,< -0.25
5,RKPLVQKRLLYGNRLSWRDD,< -0.25
6,DMADIPCVKINRRRGWVYAE,< -0.25
7,KHE,< -0.25
8,GLSDARPYCFFRRFFIWV,< -0.25
9,SRQRGICGCDAGEQLLIASI,< -0.25
10,GPAWAHVLIATARHSSRIQP,< -0.25
11,LEKERSLNAYGWLSCLGGRV,-0.183
12,SLWG,< -0.25
13,FTRKRFHLATPCGAGKSYT,< -0.25
14,ATSLGGVIITPCR,< -0.25
15,GEHQLHVVAPVRGPFLCLTG,< -0.25
16,IMRRPVRSIQRPANHLLNPQ,< -0.25
17,KLGECTGLAEVESACRFKTS,< -0.25
18,LNEGCTCTQGPVPAGGVYVS,< -0.25
19,IVPVLH,< -0.25
20,DIQPCHQVGYHTLAVHGKAP,< -0.25
21,LKAEAERCCKIPAAFCQEAG,< -0.25
22,NCSSLND,< -0.25
23,FVVRGVSFSGLPL,< -0.25

row,Substance,growth estimate
1,WSLPWDNS,< -0.25
2,FWRCLGPSVKIYVATEVDNG,< -0.25
3,NITTQHKAVKDSSLKYRYAC,< -0.25
4,CKIGPRGWHIRLVRISSSFV,< -0.25
5,LTGRPKPRVARAAGFNAGSS,< -0.25
6,AGQGHKCLWVKLH,< -0.25
7,ATGNSKTV,< -0.25
8,IVNWDHPVGGYFADLLECQP,-0.174
9,SLVRPPAKTKVCGVRR,< -0.25
10,RNGSSDL,< -0.25
11,STALPCFHSP,< -0.25
12,LSAGSSDWADQPW,< -0.25
13,FKTVAL,< -0.25
14,RPRPNSLGLGARSPGFDPGL,< -0.25
15,RRVTASGGVNRMDTANR,< -0.25
16,KDRSMRASHTHVIIRLVGNG,< -0.25
17,MATNRDFAMGEL,< -0.25
18,RVGIEQIKANIE,< -0.25
19,RRTRGDRRKAFQWGAVQ,< -0.25
20,RLTLPGAAHRLITATGVPIE,< -0.25
21,SRLQV,< -0.25
22,ASVADRILN,< -0.25
23,RRPHPLATNSWIAYSGVPAP,< -0.25

row,Substance,growth estimate
1,VVS,< -0.25
2,GLRWL,< -0.25
3,FTKRAPAMVVTPGGPP,< -0.25
4,ITFRGYWAHLSDQPGHEFHG,-0.137
5,CNLWAMFMCTEFNPCDARPV,< -0.25
6,AVSRSTDMRRGALLEFPGGF,< -0.25
7,SRICLGLFG,0.0189
8,MHFSWRQLVR,-0.206
9,TDNCIHQFEYHSLSCCHWAG,< -0.25
10,SEDGLRRDSDGRQWAVYNHN,< -0.25
11,LGP,< -0.25
12,YQTA,< -0.25
13,VCHFD,< -0.25
14,YYAPKVGRWVISSMCVRGNQ,< -0.25
15,IASRFSRRGIGWLH,< -0.25
16,VLNQMHCLGVFLAAGAHGST,< -0.25
17,FVLKE,< -0.25
18,CEDGSPNGVHEERKGGNTGQ,< -0.25
19,SVTDVSS,< -0.25
20,DSYAGSFIVSRRSTRLEGLR,< -0.25
21,IRERGVVLLLRTNYSRFGIR,< -0.25
